# The supplement of paper PMC8728848
# The list shows a part of the results.
# B1: OS9 (Arabidopsis thaliana) (protein)
# chain: MRGSHHHHHHGMASMTGGQQMGRDLYDDDDKSRLQIFPAHLVGTFSRNNREPKYKIEFLPEDSPFHPGDNLESMVMLDKHGNRFLCYLPKEEKATSGWTSSQQNISTVMMETQQLVKLKTPDELLQPLSEKCLFRQEGWWSYEFCHQKYVRQLHVEDENKIVQEFFLGTFDPEATAAFNQTVSDASTDASQRYHSHVYTNGTTCDLTGSPREVEVRFVCAETRAMVTSITELSTCKYALTVQCPTLCKHPLFQLEKPVSHTIHCNAIPVEEDATRNKEEQAVDESPKMIADS
# What was measured:
# Test in all cases: glycan array binding signal (z-score within array); higher = stronger binding
# Conditions in all cases: glycan notation: IUPAC condensed, linker removed
# [1] = biological target: GlcNAc(a1-4)Gal(b1-3)GlcNAc
# Procedure, shortened: (§1)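 Glycan array binding is given as a within-array Z-score, which can be read as non-binding when negative. The arrays, 3228 of them, came from the Consortium for Functional Glycomics database and were retained only where the protein sequence was available. Z-scores were averaged across arrays of the same protein sequence at different concentrations or buffers and across linkers.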
# [2] = biological target: GlcNAc(a1-4)Gal(b1-4)GalNAc
# Procedure, shortened: as §1
# [3] = biological target: GlcNAc(a1-4)Gal(b1-4)GlcNAc
# Procedure, shortened: as §1
# [4] = biological target: GlcNAc(a1-4)Gal(b1-4)GlcNAc(b1-3)Gal(b1-4)Glc
# Procedure, shortened: as §1
# [5] = biological target: GlcNAc(a1-4)Gal(b1-4)GlcNAc(b1-3)Gal(b1-4)GlcNAc
# Procedure, shortened: as §1
# [6] = biological target: GlcNAc(a1-4)Gal(b1-4)GlcNAc(b1-3)Gal(b1-4)GlcNAc(b1-3)Gal(b1-4)GlcNAc
# Procedure, shortened: as §1
# [7] = biological target: GlcNAc(a1-4)Gal(b1-4)GlcNAc(b1-3)Gal(b1-4)[Fuc(a1-3)]GlcNAc(b1-3)Gal(b1-4)[Fuc(a1-3)]GlcNAc
# Procedure, shortened: as §1
# [8] = biological target: GlcNAc(a1-6)Gal(b1-4)GlcNAc
# Procedure, shortened: as §1
# [9] = biological target: GlcNAc(b1-2)Gal(b1-3)GalNAc
# Procedure, shortened: as §1
# [10] = biological target: GlcNAc(b1-2)Man(a1-3)[GlcNAc(b1-2)Man(a1-6)]Man(b1-4)GlcNAc(b1-4)GlcNAc
# Procedure, shortened: as §1
# [11] = biological target: GlcNAc(b1-2)Man(a1-3)[GlcNAc(b1-2)Man(a1-6)]Man(b1-4)GlcNAc(b1-4)[Fuc(a1-6)]GlcNAc
# Procedure, shortened: as §1
# [12] = biological target: GlcNAc(b1-2)Man(a1-3)[GlcNAc(b1-4)][GlcNAc(b1-2)Man(a1-6)]Man(b1-4)GlcNAc(b1-4)GlcNAc
# Procedure, shortened: as §1
# [13] = biological target: GlcNAc(b1-2)Man(a1-3)[GlcNAc(b1-4)][GlcNAc(b1-2)Man(a1-6)]Man(b1-4)GlcNAc(b1-4)[Fuc(a1-6)]GlcNAc
# Procedure, shortened: as §1
# [14] = biological target: GlcNAc(b1-2)[GlcNAc(b1-4)]Man(a1-3)[GlcNAc(b1-2)Man(a1-6)]Man(b1-4)GlcNAc(b1-4)GlcNAc
# Procedure, shortened: as §1
# [15] = biological target: GlcNAc(b1-2)[GlcNAc(b1-4)]Man(a1-3)[GlcNAc(b1-4)][GlcNAc(b1-2)Man(a1-6)]Man(b1-4)GlcNAc(b1-4)GlcNAc
# Procedure, shortened: as §1
# [16] = biological target: GlcNAc(b1-2)[GlcNAc(b1-4)]Man(a1-3)[GlcNAc(b1-4)][GlcNAc(b1-2)[GlcNAc(b1-6)]Man(a1-6)]Man(b1-4)GlcNAc(b1-4)GlcNAc
# Procedure, shortened: as §1
# [17] = biological target: GlcNAc(b1-2)[GlcNAc(b1-4)]Man(a1-3)[GlcNAc(b1-4)][GlcNAc(b1-2)[GlcNAc(b1-6)]Man(a1-6)]Man(b1-4)GlcNAc(b1-4)[Fuc(a1-6)]GlcNAc
# Procedure, shortened: as §1
# [18] = biological target: GlcNAc(b1-2)[GlcNAc(b1-6)]Man(a1-6)[GlcNAc(b1-2)Man(a1-3)]Man(b1-4)GlcNAc(b1-4)GlcNAc
# Procedure, shortened: as §1
# [19] = biological target: GlcNAc(b1-2)[GlcNAc(b1-6)]Man(a1-6)[GlcNAc(b1-2)Man(a1-3)]Man(b1-4)GlcNAc(b1-4)[Fuc(a1-6)]GlcNAc
# Procedure, shortened: as §1
binder,measurement,setting,value
B1,glycan array binding signal (z-score),[1],-0.06
same,glycan array binding signal (z-score),[2],0.379
same,glycan array binding signal (z-score),[3],-0.812
same,glycan array binding signal (z-score),[4],-0.706
same,glycan array binding signal (z-score),[5],-0.549
same,glycan array binding signal (z-score),[6],-0.35
same,glycan array binding signal (z-score),[7],-1.33
same,glycan array binding signal (z-score),[8],-0.016
same,glycan array binding signal (z-score),[9],0.066
same,glycan array binding signal (z-score),[10],-1.16
same,glycan array binding signal (z-score),[11],-0.237
same,glycan array binding signal (z-score),[12],-0.105
same,glycan array binding signal (z-score),[13],-1.1
same,glycan array binding signal (z-score),[14],-0.735
same,glycan array binding signal (z-score),[15],-0.147
same,glycan array binding signal (z-score),[16],0.258
same,glycan array binding signal (z-score),[17],0.273
same,glycan array binding signal (z-score),[18],-0.361
same,glycan array binding signal (z-score),[19],-0.161

# Given with tabs: entries from further up
binder	measurement	setting	value
B1	glycan array binding signal (z-score)	[3]	-0.812
same	glycan array binding signal (z-score)	[13]	-1.1
